The values below come from PMC8979988.

Chains of the proteins cited; added tags and fusions are not shown.
UniProt Q8BSK8: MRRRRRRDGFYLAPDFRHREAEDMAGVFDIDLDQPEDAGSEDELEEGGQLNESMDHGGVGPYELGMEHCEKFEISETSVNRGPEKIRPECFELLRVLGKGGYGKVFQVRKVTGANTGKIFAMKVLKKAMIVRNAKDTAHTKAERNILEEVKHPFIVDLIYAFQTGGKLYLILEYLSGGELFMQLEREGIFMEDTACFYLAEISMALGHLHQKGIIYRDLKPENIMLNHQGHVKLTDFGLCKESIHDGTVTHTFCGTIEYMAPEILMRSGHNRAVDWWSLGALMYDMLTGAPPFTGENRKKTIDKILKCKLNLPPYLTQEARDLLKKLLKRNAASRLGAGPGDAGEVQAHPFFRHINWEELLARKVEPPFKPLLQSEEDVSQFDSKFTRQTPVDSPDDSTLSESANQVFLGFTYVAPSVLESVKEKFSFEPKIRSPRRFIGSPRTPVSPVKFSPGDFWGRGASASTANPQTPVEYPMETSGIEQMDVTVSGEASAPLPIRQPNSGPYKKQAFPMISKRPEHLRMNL
UniProt Q9WTL8: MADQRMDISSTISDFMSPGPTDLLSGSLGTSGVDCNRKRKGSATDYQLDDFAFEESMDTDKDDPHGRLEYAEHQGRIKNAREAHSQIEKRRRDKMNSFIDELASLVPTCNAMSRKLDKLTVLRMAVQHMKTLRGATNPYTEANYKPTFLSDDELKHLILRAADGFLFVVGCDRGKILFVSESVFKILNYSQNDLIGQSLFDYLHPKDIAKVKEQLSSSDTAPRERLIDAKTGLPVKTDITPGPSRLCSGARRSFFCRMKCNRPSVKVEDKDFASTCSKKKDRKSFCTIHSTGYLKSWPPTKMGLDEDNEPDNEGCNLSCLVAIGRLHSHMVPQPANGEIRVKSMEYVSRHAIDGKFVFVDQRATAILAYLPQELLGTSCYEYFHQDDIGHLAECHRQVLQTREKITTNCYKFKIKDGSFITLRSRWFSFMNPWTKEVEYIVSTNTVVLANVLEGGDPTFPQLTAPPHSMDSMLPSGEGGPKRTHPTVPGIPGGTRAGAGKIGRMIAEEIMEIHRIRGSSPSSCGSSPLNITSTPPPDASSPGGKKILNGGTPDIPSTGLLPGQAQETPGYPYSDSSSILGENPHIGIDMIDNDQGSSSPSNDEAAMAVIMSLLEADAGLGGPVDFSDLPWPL

Results are given in words; binding and its absence hold for the method and conditions named. In cells and extracts the contact can be indirect. Some binding calls cover weakened binding; strength is not graded here.

For the assay, the target named is ribosomal protein S6 kinase 1 (S6K1) (mouse (endogenous in 3T3-L1)) (UniProt Q8BSK8). The assay can be described thus: co-IP; immunoprecipitation with S6K1 or IgG antibody from separated cytosolic and nuclear extracts of 3T3-L1 adipocytes; antibody 16 h at 4 °C, Protein A magnetic beads; IP lysis buffer 40 mM HEPES pH 7.4, 120 mM NaCl, 1 mM EDTA, 0.3% CHAPSO; immunoblot.

Take “BMAL1 (Brain and Muscle ARNT-Like 1) (from UniProt Q9WTL8 1-632)”: the binding result is reported as “binds”.
